According to PubChem BioAssay AID540276 (National Center for Advancing Translational Sciences (NCATS), 2011):
In all, about 300,000 compounds went through this assay and about 5,400 (1.8%) were called active. The shares of active, inactive and inconclusive entries below differ from those in the screen. Calls come from the whole dose curve; tested in HEK293 cells. Potencies of inconclusive entries are doubtful fits and often do not repeat.
% is set by controls: 0 for no effect and ±100 for the full control effect; potency is the fitted concentration of half-maximal effect.

Experiment: qHTS for inhibitors of binding or entry into cells for Marburg Virus
Conditions: Marburg virus pseudotyped entry inhibition, cell reporter; activity change, negative = inhibition: at 37.8 µM (top of the series) unless noted
For `O=C(Cn1cc(SCc2ccccc2Cl)c2ccccc21)N1CCOCC1`, the Potency was inconclusive: 6.31 µM [activator, single point]. In the case of `C/C(CC(=O)Nc1cccnc1)=N\NC(=O)C(C)Oc1ccc(Cl)cc1Cl` (stereo not given), the Potency was inconclusive: 5.01 µM [activator, single point]. With `Cc1cc(/C=C2/C(=N)N3C(=NC2=O)SN=C3S(C)(=O)=O)c(C)n1-c1ccccc1` the Potency was inconclusive: 10 µM [inhibitor, partial curve, poor fit]. With `Cn1nnnc1NCc1ccc(Cl)cc1` the Potency was inconclusive: 3.55 µM [activator, single point]. With `CN(Cc1ccccc1)C(=O)COC(=O)C1=NNC(=O)CC1` the Potency was inconclusive: 2.51 µM [activator, partial curve, poor fit]. For `Fc1ccccc1N1CCN(c2nc3ccccc3n3nnnc23)CC1`, the Potency was inconclusive: 0.112 µM [inhibitor, full curve, poor fit]. In the case of `COc1ccc(Sc2cnn(-c3ccccc3)c(=O)c2Cl)cc1`, the Potency was “inactive”. With `Nc1nc(CCl)nc(N(c2ccccc2)c2ccccc2)n1` the Potency was inconclusive: 7.08 µM [inhibitor, partial curve, poor fit]. With `Cc1ccc(-c2nnc(NC(=O)c3ccco3)s2)cc1` the Potency was “inactive”. For `CCCNC(=O)COc1ccccc1[N+](=O)[O-]`, the Potency was “inactive”. In the case of `CC1CCc2c(sc3ncnc(NCc4cccnc4)c23)C1` (stereo not given), the Potency was “inactive”. For `C[C@@H](CN1CCC(Cc2ccccc2)CC1)[C@@H](O)c1ccc(O)cc1`, the Potency was inconclusive: 20.6 µM [inhibitor, partial curve] and the activity change, negative = inhibition was inconclusive: -68% [inhibitor]. For `O=C(NCc1ccccc1)c1ccc(=O)oc1`, the Potency was inconclusive: 35.5 µM [inhibitor, single point]. With `COc1ccc(N2C(=O)/C(=C3/C=CC=CN3C)SC2=S)cc1` the Potency was inconclusive: 11.2 µM [activator, partial curve, poor fit]. With `CN(c1ccc(Br)cc1)S(=O)(=O)c1ccc2[nH]cc(C(=O)NCCN3CCOCC3)c(=O)c2c1` the Potency was inconclusive: 10 µM [inhibitor, single point]. With `CCOC(=O)c1cccc(NC(=O)c2ccc(NC(=O)C3CCCO3)cc2)c1` (stereo not given) the Potency was inconclusive: 4.47 µM [activator, single point]. For `Cc1nc(N2CCOCC2)c2c3c(sc2n1)CCC3`, the Potency was “inactive”. With `COc1ccc2c(c1)sc(=NC(=O)CS(=O)(=O)c1ccc(F)cc1)n2C` the Potency was inconclusive: 35.5 µM [inhibitor, single point]. In the case of `C/C(=N\Nc1nc2ccccc2[nH]1)c1ccc2c(c1)OCCO2`, the Potency was inconclusive: 35.5 µM [inhibitor, single point]. In the case of `COc1ccc(N2CCOCC2)c(NC(=O)c2ccc(Br)o2)c1`, the Potency was inconclusive: 31.6 µM [inhibitor, single point]. For `Cc1nn(-c2ccc(F)cc2)c(Cl)c1/C=C(/CCC(=O)O)c1nc2ccccc2s1`, the Potency was “inactive”. In the case of `O=C(NCC1CCCO1)c1cc2cc(Cl)ccc2[nH]1` (stereo not given), the Potency was inconclusive: 15.8 µM [activator, single point]. With `CC(Nc1nc(-c2cccnc2)nc2ccccc12)c1ccc(F)cc1` (stereo not given) the Potency was inconclusive: 20 µM [inhibitor, single point]. With `S=C(Nc1ccc(Br)cc1Cl)N1CCCC1` the Potency was “inactive”. With `Cc1ccc2c(CN3CCN(S(=O)(=O)c4ccc(Cl)cc4)CC3)cc(=O)oc2c1C` the Potency was inconclusive: 8.91 µM [inhibitor, partial curve, poor fit]. With `NC(=O)CCN(C1CCCCC1)S(=O)(=O)c1cccc2nsnc12` the Potency was “inactive”. For `Cc1ccc(N(CC(=O)N/N=C/c2cccs2)S(C)(=O)=O)cc1`, the Potency was inconclusive: 1.64 µM [activator, partial curve, poor fit]. With `CCN1CCN(CCCN(Cc2ccco2)C(=S)Nc2ccc(C)c(Cl)c2)CC1` the Potency was inconclusive: 15.8 µM [inhibitor, single point]. With `CN=C1c2cc3c(Br)c(OC)ccc3n2CCN1C` the Potency was inconclusive: 29.1 µM [inhibitor, single point]. For `Cc1ccc(-c2nnn(CC(=O)N(CC(=O)NC3CCCCC3)c3ccc(F)c(Cl)c3)n2)o1`, the Potency was inconclusive: 10 µM [inhibitor, partial curve, poor fit]. With `Cc1ccc(N2C(=O)CC(N3CCN(S(=O)(=O)c4ccccc4)CC3)C2=O)c(C)c1` (stereo not given) the Potency was inconclusive: 2.82 µM [activator, partial curve]. For `Cc1ccc(C)c(NC(=O)Nc2cc3c(cc2N2CCCCC2)n(C)c(=O)n3C)c1`, the Potency was inconclusive: 0.562 µM [inhibitor, full curve, poor fit]. With `Cc1nc(Nc2nc(CSc3ccc(Cl)cc3)cc(=O)[nH]2)nc2ccccc12` the Potency was “inactive”. In the case of `Cc1ccc(NC(=O)Cc2csc(-c3ccccc3)n2)cc1F`, the Potency was inconclusive: 25.1 µM [inhibitor, single point]. With `CCCN(CCC)S(=O)(=O)c1nc2nc(C)cc(C)n2n1` the Potency was “inactive”. With `O=C(CSCC(=O)NN=Cc1ccccc1O)NN=Cc1ccccc1O` the Potency was inconclusive: 7.94 µM [inhibitor, partial curve]. In the case of `CCOc1ccc(C(C)NC(=O)Nc2ccccc2C(=O)OC)cc1` (stereo not given), the Potency was inconclusive: 1.03 µM [inhibitor, single point]. With `COc1ccc(CN2CCN(C(C)C(=O)N3CCc4ccccc43)CC2)cc1OC` (stereo not given) the Potency was inconclusive: 7.08 µM [inhibitor, full curve, poor fit]. With `O=C(COc1ccc(C(=O)c2ccccc2)cc1)NC1CCCCC1` the Potency was inconclusive: 6.51 µM [inhibitor, full curve]. For `Fc1ccc(NC(=S)N2N=CCC2c2ccccc2)cc1` (stereo not given), the Potency was inconclusive: 14.6 µM [activator, partial curve, poor fit]. In the case of `COc1ccc(N2CCN(c3ccc(C(=O)O)cc3[N+](=O)[O-])CC2)cc1`, the Potency was “inactive”. In the case of `Cc1ccc(-n2ncc3c(=O)n(Cc4cccc(Cl)c4)cnc32)cc1C`, the Potency was “inactive”. In the case of `COc1ccc(OCc2cc(C(=O)N3CCSCC3)no2)c(Cl)c1`, the Potency was “inactive”. With `O=C(Nc1ccc(Oc2ccc(NC(=O)Nc3ccccc3Cl)cc2)cc1)Nc1ccccc1Cl` the Potency was inconclusive: 0.562 µM [inhibitor, full curve, poor fit]. With `CCc1cccc(NC(=O)C2CCN(S(=O)(=O)c3ccc(Br)s3)CC2)c1` the Potency was inconclusive: 0.562 µM [inhibitor, full curve, poor fit]. In the case of `CCOC(=O)c1cnc2c(Cl)c(Cl)ccc2c1N1CCN(C)CC1`, the Potency was inconclusive: 6.31 µM [inhibitor, partial curve, poor fit]. With `CCOC(=O)c1cc(-c2ccccc2)n(CC(=O)Nc2cccc(OC)c2)c1C` the Potency was inconclusive: 28.2 µM [inhibitor, single point]. With `COc1cccc(NC(=O)Nc2ccc(CC(=O)O)cc2)c1` the Potency was “inactive”. With `CCOc1ccc2nc(NS(=O)(=O)c3cccs3)sc2c1` the Potency was “inactive”. In the case of `Cc1c(NC(=O)c2cccs2)cccc1NC(=O)c1cccs1`, the Potency was “inactive”. For `S=C(NCc1ccccc1)Nc1nccs1`, the Potency was inconclusive: 5.62 µM [activator, single point]. With `COC(=O)c1ccc(CS(=O)(=O)c2ccc(C)cc2)cc1` the Potency was “inactive”. With `O=C(CC1CCCCC1)Nc1ccc(-c2ccc3nncn3n2)cc1` the Potency was inconclusive: 35.5 µM [inhibitor, partial curve, poor fit]. In the case of `Oc1ccc(Br)cc1-c1cc(-c2ccccc2)n[nH]1`, the Potency was “inactive”. In the case of `O=Cc1cn(Cc2ccc([N+](=O)[O-])cc2)c2ccccc12`, the Potency was inconclusive: 10.3 µM [inhibitor, partial curve, poor fit]. In the case of `CCCCCc1ccc(-c2ccc(OC)cc2)nc1`, the Potency was “inactive”. With `O=C(NC(=S)Nc1ccc(S(=O)(=O)Nc2nccs2)cc1)c1cccnc1` the Potency was “inactive”. With `CCCn1c(=O)sc2cc(NC(=O)c3ccccc3Cl)ccc21` the Potency was inconclusive: 11.2 µM [activator, partial curve, poor fit]. For `Cc1ccc(-c2nc3ccccn3c2NCc2ccc3c(c2)OCO3)cc1`, the Potency was inconclusive: 0.103 µM [inhibitor, full curve, poor fit]. For `CS(=O)(=O)c1ccc2nc(NC(=O)CN3CCN(Cc4ccccc4)CC3)sc2c1`, the Potency was “inactive”. In the case of `CC1CCN(S(=O)(=O)c2ccc(NC(=O)Cc3ccc(S(=O)(=O)N4CCOCC4)s3)cc2)CC1`, the Potency was inconclusive: 12.6 µM [inhibitor, partial curve, poor fit]. With `CCCCNc1ccncc1S(=O)(=O)NC(=O)NC(C)C` the Potency was inconclusive: 0.1 µM [activator, full curve, poor fit]. With `COc1ccccc1NC(=O)C/C(C)=N/NC(=O)c1ccccn1` the Potency was inconclusive: 1 µM [activator, full curve, poor fit]. With `COC(=O)C1C(c2ccc(OC)c(OC)c2)NC(c2ccc(OC)c(OC)c2)C(C(=O)OC)S1(=O)=O` (stereo not given) the Potency was “inactive”. With `CCN(CC)C(=O)c1c(NC(=O)c2ccccc2F)sc2c1CCC(C(C)(C)C)C2` (stereo not given) the Potency was inconclusive: 0.562 µM [inhibitor, full curve, poor fit]. With `Cc1cc2oc(C(=O)N(Cc3ccc(Cl)cc3)Cc3ccco3)c(C)c2cc1Cl` the Potency was inconclusive: 5.62 µM [activator, single point]. With `CCCC1C(=O)Nc2ccccc2N1C(=O)c1cccc(C)c1` (stereo not given) the Potency was inconclusive: 35.5 µM [inhibitor, single point]. For `COc1ccccc1CSc1ncc(-c2ccc([N+](=O)[O-])cc2)[nH]1`, the Potency was inconclusive: 3.55 µM [inhibitor, full curve]. With `CCCCNC(=S)N(C)/N=C/c1ccc(OCC(=O)Nc2ccc(OC)cc2)c(OC)c1` the Potency was inconclusive: 5.8 µM [inhibitor, full curve, poor fit].
